PubChem BioAssay AID1259308 – NCATS | 2017
Here is a random part of about 59,000 deposited reagents. About 1,510 of all reagents (2.6%) were called active. 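Calls use total luciferase alone and ignore viability, so some active siRNAs may act by altering cell number.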 The numbers tell different reagents against one gene apart.

Purpose: 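Candidate targets for better recombinant protein yield in mammalian cells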 (primary screen)
Cell system: human HEK293 embryonic kidney cells stably expressing firefly luciferase (HEK-CMV-Luc2-Hygro)
Knock-down reagent: single siRNA against human genes, 0.8 pmol siRNA per well
Time to read-out: 72 h
Measurement: 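Luciferase light (ONE-Glo) measured on one replicate plate set and viability (CellTiter-Glo) on the other, scaled to a negative control siRNA, with robust z-scores and luciferase per cell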
Reading the numbers: total luciferase, z-score and total luciferase, % of control: higher = more reporter protein produced; luciferase per cell, z-score: higher = more reporter output per viable cell; viable cells, % of control: higher = more viable cells
Active means: 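Active when the median/MAD z-score for overall luciferase is greater than 3; a gene was taken forward for validation with new siRNAs if at least two of its three siRNAs passed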
Meaning of the calls: active = raised luciferase; inactive = no rise

gene knocked down	reagent	total luciferase, z-score	total luciferase, % of control	luciferase per cell, z-score	viable cells, % of control	outcome
CRYBA4	1	0.524	92.3	0.606	87.9	inactive
CRYBA4	2	-0.0701	80.5	0.118	87.2	inactive
CRYBA4	3	-0.194	78	-0.174	91.3	inactive
SLC28A3	1	0.338	88.6	0.251	92.7	inactive
SLC28A3	2	-0.534	71.3	-0.471	90.1	inactive
SLC28A3	3	-0.726	67.5	-1.03	99	inactive
CCL27	1	-0.436	73.2	-0.692	98.2	inactive
CCL27	2	-0.759	66.8	-1.23	103	inactive
CCL27	3	-1.48	52.4	-0.418	65.3	inactive
ZFYVE28	1	0.306	88	0.0924	95.9	inactive
ZFYVE28	2	-0.0282	81.3	0.658	76.4	inactive
ZFYVE28	3	-0.278	76.4	0.0592	84	inactive
AKAP9	1	0.5	91.8	0.0412	102	inactive
AKAP9	2	0.328	88.4	1.05	75	inactive
AKAP9	3	-1.3	55.9	-1.42	90.8	inactive
DAB2	1	-0.522	71.5	-1.1	107	inactive
DAB2	2	1.88	119	1.69	85.5	inactive
DAB2	3	-0.869	64.6	-1.58	110	inactive
SENP7	1	-1.2	58.1	-0.793	79.9	inactive
SENP7	2	-1.06	60.8	-1.67	105	inactive
SENP7	3	0.535	92.5	0.0418	102	inactive
BLVRA	1	-0.89	64.2	-1.34	102	inactive
BLVRA	2	-0.951	63	-1.23	97.2	inactive
BLVRA	3	0.614	94.1	-0.103	108	inactive
CEP97	1	-1.64	49.2	-1.45	80.6	inactive
CEP97	2	-0.196	78	-0.789	107	inactive
CEP97	3	-0.425	73.4	-0.832	102	inactive
WASH6P	1	0.86	99	0.748	90.9	inactive
WASH6P	2	0.163	85.1	-0.0628	96.7	inactive
WASH6P	3	0.675	95.3	1.27	76.3	inactive
CD40LG	1	0.297	87.8	-0.145	102	inactive
CD40LG	2	-2.2	38.1	-1.77	67.9	inactive
CD40LG	3	0.856	98.9	0.954	86	inactive
PROS1	1	-0.0944	80	0.288	82.9	inactive
PROS1	2	0.79	97.6	0.52	95.1	inactive
PROS1	3	0.054	83	0.0271	92	inactive
ATP13A4	1	-2.02	41.6	-1.94	77.5	inactive
ATP13A4	2	-0.357	74.8	-0.16	87.2	inactive
ATP13A4	3	0.53	92.4	1.24	74.4	inactive
